This note sets out measurements from article PMC10133297.

These are yes or no findings as the source states them, for the method shown. A result given as binding can be weak or reduced; the word gives no strength.

The experiment addresses T1, WT-CsgF (curli accessory protein CsgF) (E. coli) (UniProt P0AE98).
T1 sequence (chain, lysine residues sparsely labeled with Alexa-633; labeled,unlabeled 1,50): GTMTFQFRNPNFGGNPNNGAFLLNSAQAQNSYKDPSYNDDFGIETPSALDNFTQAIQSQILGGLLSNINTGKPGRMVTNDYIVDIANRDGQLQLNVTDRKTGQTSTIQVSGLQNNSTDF
Nature of the experiment: fluorescence microscopy of recruitment into phase-separated droplets; CsgF condensates (20 µM, from 100 µM CsgF in 25 mM potassium phosphate pH 7.5) added to the labelled curli subunit (CsgB 20 µM) at room temperature; labeled:unlabeled 1:50; both purified.

As to “CsgB∆R5 (CsgB truncation mutant that is missing the C-terminal R5 repeat) (E. coli) (domain or fragment)”, the binding entry is reported as “binds”.
